# According to PubChem BioAssay AID595 (National Center for Advancing Translational Sciences (NCATS), 2007):
# The campaign covered roughly 71,000 compounds. About 310 (0.44%) were called active. Inconclusive means that the source gave no clear call. Such entries were picked first, then a sample of the others. The call rests on the fitted dose curve; in most records, active means well fitted curve in either direction with a large enough effect; inconclusive means small, poorly fitted or top-dose-only effect, or another doubt; inactive means flat fitted curve, though single readings scatter. Where the call is inconclusive, the potency comes from a doubtful curve fit.
# System: Hsp90 C-terminal peptide / TPR2A (Hop) interaction, human
# Test: qHTS Assay for Disrupters of an Hsp90 Co-Chaperone Interaction
# Details: AlphaScreen TPR2A-His6 binding biotin-Hsp90 C-terminal peptide; activity change, negative = inhibition: at 57 µM (top of the series) unless noted
# On the % scale 0 is the no-effect control and ±100 the full control effect; potency means the concentration at half of the fitted maximal effect.
SMILES,"activity change, negative = inhibition",Potency
N#CC1(Nc2ccc(-c3ccc(NC4(C#N)CCCC4)cc3)cc2)CCCC1,inconclusive: 87.2% [at 11 µM],–
COc1cc2c(cc1OC)C(C(=O)Nc1ccccn1)C(c1cccnc1)N(C)C2=O (configuration not stated),–,"inconclusive: 31.6 µM [inhibitor, single point]"
CN(C)C=Nc1c(Br)cc(Br)c2nonc12,–,"inconclusive: 31.6 µM [activator, single point]"
CC(C)Cn1c(N)c(C(=O)NCc2cccs2)c2nc3ccccc3nc21,inconclusive: 360%,–
Cc1nnc(SCCCn2c(N3CCCCC3)nc3c2c(=O)[nH]c(=O)n3C)s1,–,"inconclusive: 25.1 µM [inhibitor, partial curve]"
COC(=O)CNc1c(-c2ccccn2)nc2ccc(Br)cn12,–,"inconclusive: 25.1 µM [inhibitor, partial curve]"
CCOC(=O)C1=C(N)OC2=C(C(=O)CCC2)C1c1ccc(C)s1 (configuration not stated),inconclusive: 47.7%,–
COc1ccc(S(=O)(=O)N(C)CC(=O)NC2CCCCC2)cc1OC,inconclusive: 51.5%,–
CC(=O)c1ccc(Nc2ncnc3c2oc2ccccc23)cc1,inconclusive: 45.1%,–
CC(C)C[C@@H](CC(=O)N[C@@H](CCC(=O)O)CC(=O)O)NC(=O)[C@@H]1CCCC[C@H]1NC(=O)C[C@@H](NC(=O)C[C@H](CO)NC(=O)[C@@H]1CCCC[C@H]1N)C(C)C,–,"inconclusive: 31.6 µM [inhibitor, single point]"
CC(=O)OCCNc1cc(N2CCN(C)CC2)c2noc3c2c1C(=O)c1ccccc1-3,–,"inconclusive: 15.8 µM [inhibitor, partial curve]"
CCOC(=O)CCCCC(=O)c1[nH]c(=O)[nH]c1Cn1ccnc1,–,"inconclusive: 12.6 µM [inhibitor, partial curve]"
Cc1cc(NC(=O)CSc2nnc(COc3ccccc3)o2)no1,–,"inconclusive: 31.6 µM [inhibitor, single point]"
CC(C)C(NC(=O)c1ccccc1NC(=O)c1ccco1)C(=O)O (configuration not stated),inconclusive: 54.2%,–
CCCCC(=O)Nc1ccc(N2CCN(C(=O)CC)CC2)cc1,–,"inconclusive: 15.8 µM [inhibitor, partial curve]"
COc1ccc(-c2noc(-c3ccccc3F)n2)cc1,–,"inconclusive: 25.1 µM [activator, single point]"
O=C(CN1CC(=O)Oc2ccccc21)NCc1ccco1,–,"inconclusive: 12.6 µM [inhibitor, partial curve]"
CCN(CC)S(=O)(=O)c1cc(C(=O)Nc2ccccn2)ccc1C,inconclusive: 47.8%,–
c1ccc(-n2c(Sc3cnccn3)nnc2-c2cccs2)cc1,inconclusive: 41.5%,–

SMILES,"activity change, negative = inhibition",Potency
Cc1cc(Nc2ccc(Br)cc2F)n2nc(C)nc2n1,inactive: -2.19%,–
COC(=O)c1ccc(CSc2nc3sc4c(c3c(=O)n2C)CCCC4)o1,inconclusive: 35.8%,–
Cc1nc(N=Nc2ccc(C(=O)O)cc2)c(COP(=O)(O)O)c(C=O)c1O,–,"inconclusive: 39.8 µM [inhibitor, single point]"
CSC1=C(C#N)C2(CCCC2)C(C#N)=C(N)N1,inconclusive: 37%,–
Cn1cc(-c2nc3cnc(Oc4cccc(Cl)c4)nc3n(CCC#N)c2=O)c2ccccc21,inactive: 13.1%,–
COc1ccc(S(=O)(=O)N2CC(C)N(S(=O)(=O)c3ccc(OC)cc3)CC2C)cc1 (configuration not stated),inconclusive: 63.8% [at 11 µM],–
COC(=O)[C@@]1(Cc2ccc(F)cc2)[C@H]2c3cc(C(=O)N4CCCC4)n(CCc4ccc(O)c(O)c4)c3C[C@H]2CN1C(=O)c1ccccc1,inconclusive: 2.01%,–
C=C(C)CSc1nc(N)c(C#N)c(-c2ccc(C)cc2)c1C#N,inconclusive: 51.3%,–
Nc1c(C(=O)NCc2ccc3c(c2)OCO3)c2nc3ccccc3nc2n1CCCN1CCOCC1,–,"inconclusive: 31.6 µM [activator, single point]"
O=C(Nc1ccccc1)OC1C2CCC1C(N1CCCCC1)CC2 (configuration not stated),inactive: -1.74%,–
CCOc1ccc(NC(=O)CSc2nnc(COc3c(C)cccc3C)o2)cc1,inactive: -5.11%,–
N#Cc1nc(COc2cccc(Cl)c2)oc1N1CCN(c2ccccc2)CC1,–,"inconclusive: 25.1 µM [inhibitor, partial curve]"
COc1cccc(-c2ccc3ncnc(Nc4ccccc4)c3c2)c1,inactive: 1.75%,–
Nc1nc(-c2nc3ccccc3[nH]2)cs1,–,"inconclusive: 25.1 µM [inhibitor, partial curve]"
Cc1occc1C(=O)N1CCN(c2ncccn2)CC1,inconclusive: 49.5% [at 11 µM],–
COCCn1c(=O)c(-c2cn(C)c3ccccc23)nc2cnc(Oc3ccccc3)nc21,–,active: 3.16 µM [activator]
Clc1ccc(CSc2nnc(-c3ccncc3)o2)c(Cl)c1,inactive: 7.62%,–
O=C(Nc1cccc(-c2cn3ccsc3n2)c1)c1ccccc1,inconclusive: 22.5%,–

# Part of the list above in order of molecular weight, smallest number first.
SMILES,"activity change, negative = inhibition",Potency
CSC1=C(C#N)C2(CCCC2)C(C#N)=C(N)N1,inconclusive: 37%,–
CC(C)Cn1c(N)c(C(=O)NCc2cccs2)c2nc3ccccc3nc21,inconclusive: 360%,–
Nc1c(C(=O)NCc2ccc3c(c2)OCO3)c2nc3ccccc3nc2n1CCCN1CCOCC1,–,"inconclusive: 31.6 µM [activator, single point]"
